1 molecule from paper doi:10.1101/2021.04.12.439405 (bioRxiv, 2021) can be followed below.

This test deals with T1, MukB-His (wild type MukB) (E. coli, UniProt P22523 1-1486).
T1 sequence (looked up): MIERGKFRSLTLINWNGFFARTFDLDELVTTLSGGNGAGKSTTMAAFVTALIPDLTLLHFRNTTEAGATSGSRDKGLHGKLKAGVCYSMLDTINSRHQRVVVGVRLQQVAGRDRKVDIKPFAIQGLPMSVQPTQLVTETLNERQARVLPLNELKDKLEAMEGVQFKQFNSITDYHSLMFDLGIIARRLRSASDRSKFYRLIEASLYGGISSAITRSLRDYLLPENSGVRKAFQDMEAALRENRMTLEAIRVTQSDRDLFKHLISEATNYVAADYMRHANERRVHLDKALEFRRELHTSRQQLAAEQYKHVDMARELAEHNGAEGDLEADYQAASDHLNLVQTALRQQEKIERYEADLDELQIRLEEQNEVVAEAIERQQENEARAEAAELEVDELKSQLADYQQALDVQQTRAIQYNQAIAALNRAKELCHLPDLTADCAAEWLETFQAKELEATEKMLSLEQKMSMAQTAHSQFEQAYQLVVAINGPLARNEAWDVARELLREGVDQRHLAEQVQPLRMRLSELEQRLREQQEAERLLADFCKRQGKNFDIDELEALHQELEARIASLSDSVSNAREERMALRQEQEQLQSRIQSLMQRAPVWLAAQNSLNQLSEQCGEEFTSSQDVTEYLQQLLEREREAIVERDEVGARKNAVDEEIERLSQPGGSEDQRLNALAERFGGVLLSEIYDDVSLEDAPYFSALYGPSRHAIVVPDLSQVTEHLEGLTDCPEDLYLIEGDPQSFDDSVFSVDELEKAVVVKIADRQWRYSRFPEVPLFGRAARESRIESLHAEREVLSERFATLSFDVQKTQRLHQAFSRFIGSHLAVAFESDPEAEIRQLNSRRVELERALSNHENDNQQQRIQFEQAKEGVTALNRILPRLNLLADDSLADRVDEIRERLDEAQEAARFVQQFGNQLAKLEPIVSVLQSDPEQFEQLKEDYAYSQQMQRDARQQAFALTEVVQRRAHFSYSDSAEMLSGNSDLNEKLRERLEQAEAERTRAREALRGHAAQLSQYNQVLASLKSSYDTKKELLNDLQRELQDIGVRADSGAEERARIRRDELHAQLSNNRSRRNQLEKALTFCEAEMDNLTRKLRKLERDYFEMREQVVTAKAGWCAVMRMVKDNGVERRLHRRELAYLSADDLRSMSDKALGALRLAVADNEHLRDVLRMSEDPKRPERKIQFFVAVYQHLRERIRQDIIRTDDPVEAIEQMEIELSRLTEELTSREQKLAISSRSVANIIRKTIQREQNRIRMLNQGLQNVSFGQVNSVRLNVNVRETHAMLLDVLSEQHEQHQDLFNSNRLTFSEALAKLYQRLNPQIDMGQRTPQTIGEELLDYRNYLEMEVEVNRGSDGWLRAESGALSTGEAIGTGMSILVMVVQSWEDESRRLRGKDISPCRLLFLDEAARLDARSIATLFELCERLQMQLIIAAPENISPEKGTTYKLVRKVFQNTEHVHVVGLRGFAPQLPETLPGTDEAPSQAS
Nature of the test: co-purification.

No constants are given. Whether binding was seen depends on the method and setting. Some entries that bind do so weakly or less than the wild type. Where a sequence is shown, tags or fusion partners need not be part of it.

B1: His-MukF (natural protein, E. coli, UniProt P60293 1-440, looked up)
chain: MSEFSQTVPELVAWARKNDFSISLPVDRLSFLLAVATLNGERLDGEMSEGELVDAFRHVSDAFEQTSETIGVRANNAINDMVRQRLLNRFTSEQAEGNAIYRLTPLGIGITDYYIRQREFSTLRLSMQLSIVAGELKRAADAAEEGGDEFHWHRNVYAPLKYSVAEIFDSIDLTQRLMDEQQQQVKDDIAQLLNKDWRAAISSCELLLSETSGTLRELQDTLEAAGDKLQANLLRIQDATMTHDDLHFVDRLVFDLQSKLDRIISWGQQSIDLWIGYDRHVHKFIRTAIDMDKNRVFAQRLRQSVQTYFDEPWALTYANADRLLDMRDEEMALRDEEVTGELPEDLEYEEFNEIREQLAAIIEEQLAVYKTRQVPLDLGLVVREYLSQYPRARHFDVARIVIDQAVRLGVAQADFTGLPAKWQPINDYGAKVQAHVIDKY
For the molecule B1, the binding result is “binds”.
